Measurements reported in PubChem BioAssay AID1259424 (University of Nebraska Medical Center, 2018).
Purpose: 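Find knockdowns that reproduce the expression shifts seen after KSR1 loss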 (primary screen). Cell system: human HCT116 colon cancer cells. Reagent: siRNA pool against human genes, 50 nM. Measurement: 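Log2 levels of six mRNAs (branched-DNA multiplex), adjusted by two reference genes and the non-targeting median, then scored against the average KSR1 knockdown pattern as Pearson r and euclidean distance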. Direction: mean correlation with KSR1 profile and KSR1 correlation: higher = expression change more like KSR1 knockdown; mean distance from KSR1 profile: higher = expression change less like KSR1 knockdown.
Here is an unselected part of about 14,000 reagents. 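Higher correlation or smaller distance means closer resemblance to KSR1 loss; control wells, including KSR1 knockdowns, recur on many plates.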 Further read-outs or replicates are left out here. No sequences are given here. Not given: the time to read-out.

The first 2 entries as a preview:
no.	gene knocked down	mean correlation with KSR1 profile	mean distance from KSR1 profile	KSR1 correlation, replicate 1	KSR1 correlation, replicate 2
1	NLGN2 (neuroligin 2)	-0.423	3.56	-0.446	-0.551
2	SLC1A1	-0.332	1.69	-0.0536	-0.473

Results, from the first entry:
no.	gene knocked down	mean correlation with KSR1 profile	mean distance from KSR1 profile	KSR1 correlation, replicate 1	KSR1 correlation, replicate 2
1	NLGN2 (neuroligin 2)	-0.423	3.56	-0.446	-0.551
2	SLC1A1	-0.332	1.69	-0.0536	-0.473
3	POLR1A (RNA polymerase I subunit A)	-0.391	4.35	-0.269	-0.537
4	NISCH (nischarin)	0.0475	2.83	0.278	-0.0955
5	TFAP2B (transcription factor AP-2 beta)	0.246	1.27	0.205	0.721
6	TIGAR (TP53 induced glycolysis regulatory phosphatase)	-0.228	1.99	-0.295	-0.302
7	ARC (activity regulated cytoskeleton associated protein)	-0.0725	3.89	-0.00664	-0.594
8	DYRK3 (dual specificity tyrosine phosphorylation regulated kinase 3)	-0.259	2.83	-0.352	-0.16
9	GCG (glucagon)	0.593	1.92	0.602	0.575
10	SULT2A1 (sulfotransferase family 2A member 1)	-0.562	2.06	-0.504	-0.478
11	CXCL9 (C-X-C motif chemokine ligand 9)	0.111	2.39	0.185	0.14
12	CD4 (CD4 molecule)	-0.436	2.73	-0.584	-0.444
13	NDUFAF3 (NADH:ubiquinone oxidoreductase complex assembly factor 3)	-0.487	4.38	-0.456	-0.654
14	CACNB3 (calcium voltage-gated channel auxiliary subunit beta 3)	-0.0115	4.55	0.0262	0.0892
15	CYP2B6 (cytochrome P450 family 2 subfamily B member 6)	0.488	3.11	0.545	0.405
16	CIDEB (cell death inducing DFFA like effector b)	0.0146	2.05	-0.062	0.233
17	MT2A (metallothionein 2A)	0.605	2.8	0.444	0.594
18	SLC52A1	0.624	2.57	0.607	0.642
19	RBBP5	-0.402	1.49	-0.501	-0.406
20	LINC01558 (long intergenic non-protein coding RNA 1558)	-0.556	2.01	-0.262	-0.699
